# Test results published in patent US6248765A, “Imidazole derivatives as histamine receptor H3 (ANT) agonists” (priority 1995, dated 2001).
# Sequences of proteins named here, by UniProt entry; tags and fusion partners are left off. A change or cut given only in a name is not applied to a line headed by its entry.
# UniProt Q9QYN8: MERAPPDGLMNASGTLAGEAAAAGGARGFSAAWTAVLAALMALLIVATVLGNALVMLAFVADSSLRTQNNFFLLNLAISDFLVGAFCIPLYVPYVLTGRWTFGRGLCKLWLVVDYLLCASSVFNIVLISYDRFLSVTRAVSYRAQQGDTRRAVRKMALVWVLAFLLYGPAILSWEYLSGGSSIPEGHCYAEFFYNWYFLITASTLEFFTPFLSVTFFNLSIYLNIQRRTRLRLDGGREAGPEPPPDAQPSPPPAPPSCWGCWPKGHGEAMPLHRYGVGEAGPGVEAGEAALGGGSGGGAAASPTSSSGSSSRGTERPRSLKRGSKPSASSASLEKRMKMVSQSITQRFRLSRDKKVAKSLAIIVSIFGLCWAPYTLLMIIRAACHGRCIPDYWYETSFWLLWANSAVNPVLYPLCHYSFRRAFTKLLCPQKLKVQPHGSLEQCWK
# Some entries share one result that the patent states for a list of compounds. At least one structure is not confirmed: it was looked up by name or label, or the drawing left a doubt.
# Biological target: T1, histamine H3 receptor (Rattus norvegicus, UniProt Q9QYN8)
# T1 construct: synthesized from [^3 H]histidine by synaptosomes of rat cerebral cortex; from tissue; host or cells: rat cerebral cortex synaptosomes
# Experiment: H3 antagonist power: reversal of (R)-alpha-methylhistamine-induced inhibition of [3H]histamine release from synaptosomes of rat cerebral cortex
# Format: biochemical
# Details: in words
row,SMILES,functional class at the histamine H3 receptors (antagonists)
1,"c1nc(CCCOc2ccc3c(c2)CCCC3)c[nH]1 [Example 21, 4-[3-(1,2,3,4-Tetrahydro-6-naphthyloxy)propyl]-1H-imidazole]",antagonists
2,"c1nc(CCCOc2ccc3c(c2)CCC3)c[nH]1 [Example 22, 4-[3-(5-Indanyloxy)propyl]-1H-imidazole]",antagonists
3,"Oc1cccc(OCCCc2c[nH]cn2)c1 [Example 24, 4-[3-(3-Hydroxyphenoxy)propyl]-1H-imidazole]",antagonists
4,"CC=C(CC)c1cccc(OCCCc2c[nH]cn2)c1 [Example 25, 4-{3-[3-(2-Penten-3-yl)phenoxy]propyl}-1H-imidazole]",antagonists
5,"c1ccc(Oc2ccc(OCCCc3c[nH]cn3)cc2)cc1 [Example 27, 4-[3-(4-Phenoxyphenoxy)propyl]-1H-imidazole]",antagonists
6,"CCCNC(=O)OCCCc1c[nH]cn1 [Example 28, 3-(1H-Imidazol-4-yl)propyl-N-propyl carbamate]",antagonists
7,"CCCCNC(=O)OCCCc1c[nH]cn1 [Example 29, N-Butyl-3-(1H-imidazol-4-yl)propyl carbamate]",antagonists
8,"CCCCCNC(=O)OCCCc1c[nH]cn1 [Example 30, 3-(1H-Imidazol-4-yl)propyl-N-pentyl carbamate]",antagonists
9,"CCCCCCNC(=O)OCCCc1c[nH]cn1 [Example 31, N-Hexyl-3-(1H-imidazol-4-yl)propyl carbamate]",antagonists
10,"CCCCCCCNC(=O)OCCCc1c[nH]cn1 [Example 32, N-Heptyl-3-(1H-imidazol-4-yl)propyl carbamate]",antagonists
11,"CCCCCCCCNC(=O)OCCCc1c[nH]cn1 [Example 33, 3-(1H-Imidazol-4-yl)propyl-N-octyl carbamate]",antagonists
12,"CCCCCC(C)NC(=O)OCCCc1c[nH]cn1 (stereo not drawn) [Example 34, 3-(1H-Imidazol-4-yl)propyl-N-(2-heptyl) carbamate]",antagonists
13,"CCCCCCC(C)NC(=O)OCCCc1c[nH]cn1 (stereo not drawn) [Example 35, 3-(1H-Imidazol-4-yl)propyl-N-(2-octyl) carbamate]",antagonists
14,"CC(C)CCNC(=O)OCCCc1c[nH]cn1 [Example 36, 3-(1H-Imidazol-4-yl)propyl-N-(3-methylbutyl) carbamate]",antagonists
15,"CCCC(C)NC(=O)OCCCc1c[nH]cn1 (stereo not drawn) [Example 38, 3-(1H-Imidazol-4-yl)propyl-N-(2-pentyl) carbamate]",antagonists
16,"CCCN(CCC)C(=O)OCCCc1c[nH]cn1 [Example 39, 3-(1H-Imidazol-4-yl)propyl-N,N-dipropyl carbamate]",antagonists
17,"C=CCN(CC=C)C(=O)OCCCc1c[nH]cn1 [Example 40, N,N-Diallyl-3-(1H-imidazol-4-yl)propyl carbamate]",antagonists
18,"O=C(OCCCc1c[nH]cn1)N1CCCCC1 [Example 41, N-(3-(1H-Imidazol-4-yl)propyloxycarbonyl)piperidine]",antagonists
19,"O=C(NCc1cccc(C(F)(F)F)c1)OCCCc1c[nH]cn1 [Example 45, N-(3-(Trifluoromethyl)phenylmethyl)-3-(1H-imidazol-4-yl)propyl carbamate]",antagonists
20,"O=C(NC1c2ccccc2-c2ccccc21)OCCCc1c[nH]cn1 [Example 46, N-Fluoren-9-yl-3-(1H-imidazol-4-yl)propyl carbamate]",antagonists
21,"O=C(Nc1ccc(OC(F)(F)F)cc1)OCCCc1c[nH]cn1 [Example 47, N-(4-(Trifluoromethoxy)phenyl)-3-(1H-imidazol-4-yl)propyl carbamate]",antagonists
22,"c1nc(COCC2CCCCC2)c[nH]1 [Example 53, Cyclohexylmethyl (1H-imidazol-4-yl)methyl ether]",antagonists
23,"c1nc(COCC2CC3CCC2C3)c[nH]1 (stereo not drawn) [Example 54, (Bicyclo[2.2.1]hept-2-yl)methyl (1H-imidazol-4-yl)methyl ether]",antagonists
24,"c1ccc2cc(COCCCc3c[nH]cn3)ccc2c1 [Example 56, 3-(1H-Imidazol-4-yl)propyl 2-naphthylmethyl ether]",antagonists
25,"c1ccc(-c2ccc(COCCCc3c[nH]cn3)cc2)cc1 [Example 57, 3-(1H-Imidazol-4-yl)propyl (4-biphenyl)methyl ether]",antagonists
26,FC(F)(F)c1ccc(CCCOCCCc2c[nH]cn2)cc1 [Example 58],antagonists

row,SMILES,functional class at the histamine H3 receptors (antagonists)
1,"c1ccc2nc(COCCCc3c[nH]cn3)ccc2c1 [Example 59, 3-(1H-Imidazol-4-yl)propyl-2-quoinlylmethyl ether]",antagonists
2,"c1nc(CCCOCCC2CC3CCC2C3)c[nH]1 (stereo not drawn) [Example 61, 2-(Bicyclo[2.2.1]hept-2-yl)ethyl 3-(1H-imidazol-4-yl)propyl ether]",antagonists
3,"CC(C)COCCCc1c[nH]cn1 [Example 65, 3-(1H-Imidazol-4-yl)propyl 2-methylpropyl ether]",antagonists
4,"c1nc(CCCOCCC2CCCCC2)c[nH]1 [Example 66, 2-Cyclohexylethyl 3-(1H-imidazol-4-yl)propyl ether]",antagonists
5,"C#CCCCOCCCc1c[nH]cn1 [Example 67, 3-(1H-Imidazol-4-yl)propyl 4-pentinyl ether]",antagonists
6,"CSc1ccc(COCCCc2c[nH]cn2)cc1 [Example 69, 3-(1H-Imidazol-4-yl)propyl 4-(methylthio)phenylmethyl ether]",antagonists
7,"Fc1ccc(C(OCCCc2c[nH]cn2)c2ccccc2)cc1 (stereo not drawn) [Example 72, (4-Fluorophenyl)phenylmethyl 3-(1H-imidazol-4-yl)propyl ether]",antagonists
8,"Fc1ccc(C(OCCCc2c[nH]cn2)c2ccc(F)cc2)cc1 [Example 73, Bis(4-fluorophenyl)methyl 3-(1H-imidazol-4-yl)propyl ether]",antagonists
9,"CC(=O)c1ccc(OCCCc2c[nH]cn2)cc1 [Example 78, (4-(3-(1H-Imidazol-4-yl)propyloxy)phenyl)ethanone]",antagonists
10,"CC(C)C(=O)c1ccc(OCCCc2c[nH]cn2)cc1 [Example 80, (4-(3-(1H-Imidazol-4-yl)propyloxy)phenyl)-2-methylpropanone]",antagonists
11,"O=C(c1ccc(OCCCc2c[nH]cn2)cc1)C1CCC1 [Example 82, Cyclobutyl 4-(3-(1H-imidazol-4-yl)propyloxy)phenyl ketone]",antagonists
12,"O=C(c1ccc(OCCCc2c[nH]cn2)cc1)C1CCCC1 [Example 83, Cyclopentyl 4-(3-(1H-imidazol-4-yl)propyloxy)phenyl ketone]",antagonists
13,"O=C(c1ccc(OCCCc2c[nH]cn2)cc1)C1CCCCC1 [Example 84, Cyclohexyl 4-(3-(1H-imidazol-4-yl)propyloxy)phenyl ketone]",antagonists
14,"O=C(c1ccccc1)c1ccc(OCCCc2c[nH]cn2)cc1 [Example 85, 4-(3-(1lH-Imidazol-4-yl)propyloxy)phenyl phenyl ketone]",antagonists
15,"O=C(c1ccc(F)cc1)c1ccc(OCCCc2c[nH]cn2)cc1 [Example 86, 4-(3-(1H-Imidazol-4-yl)propyloxy)phenyl 4-fluorophenyl ketone]",antagonists
16,"CCCC(=O)c1ccc(OCCCc2c[nH]cn2)cc1 [Example 91, (4-(3-(1H-Imidazol-4-yl)propyloxy)phenyl)butanone]",antagonists
17,"COc1ccc(OCCCc2c[nH]cn2)cc1 [Example 95, 3-(1H-Imidazol-4-yl)propyl 4-methoxyphenyl ether]",antagonists
18,"CC(=O)CCOCCCc1c[nH]cn1 [Example 98, 4-(3-(1H-Imidazol-4-yl)propyloxy)-2-butanone]",antagonists
19,"COCCOCCCc1c[nH]cn1 [Example 99, 3-(1H-Imidazol-4-yl)propyl 2-methoxyethyl ether]",antagonists
20,"CC(C)NC(=O)OCCCc1c[nH]cn1 [Example 101, 3-(1H-Imidazol-4-yl)propyl-N-isoropyl carbamate]",antagonists
21,"O=C(NCCC(c1ccccc1)c1ccccc1)OCCCc1c[nH]cn1 [Example 102, N-(3,3-Diphenylpropyl)-3-(1H-imidazol-4-yl)propyl carbamate]",antagonists
22,"CCCCCCCCCc1c[nH]cn1 [Example 103, (1H-Imidazol-4-yl)nonane]",antagonists
23,"CCOc1ccc(OCCCc2c[nH]cn2)cc1 [Example 105, 4-[3-(4-Ethoxyphenoxy)propyl]-1H-imidazole]",antagonists
24,"CCC(=O)c1cccc(OCCc2c[nH]cn2)c1 [Example 106, 4-[2-(3-Propanoylphenoxy)ethyl]-1H-imidazole]",antagonists
25,"O=Cc1cccc(OCCCc2c[nH]cn2)c1 [Example 108, 4-[3-(3-Formylphenoxy)propyl]-1H-imidazole]",antagonists
